PubChem BioAssay AID1259326, Drosophila RNAi Screening Center, 2017

- Purpose: 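Autophagy genes whose loss alters cell survival in toxic zinc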
- System: Drosophila S2R+ cells
- Knock-down reagent: long dsRNA against Drosophila genes
- Timing: about 5 days (4 days of RNAi, then 1 day of zinc)
- Conditions: zinc chloride added to 15 mM final for one day
- Read-out: 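Cellular ATP measured by luciferase light as a viable-cell proxy, after 4 days of RNAi and 1 day in 15 mM zinc chloride; replicate z-scores averaged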
- Reading the numbers: averaged z-score: higher = more ATP than other wells, i.e. more surviving cells, after zinc; ATP luminescence: higher = more ATP, i.e. more surviving cells
- Call rule: 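Active if the averaged z-score exceeds 1.5 or falls under -1.5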
The whole screen tested 573 reagents; below is a random part of them. In the full data, 39 (6.8%) were called active. 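All actives have raised ATP, meaning more surviving cells; in these data active calls sit at averaged z-scores near 1.5 or above.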 Raw values vary from plate to plate and are shown uncorrected. Unmarked entries are inactive. The numbers tell different reagents against one gene apart. Not given: the amount of reagent.

Glg1 #1
- averaged z-score: 0.712
- ATP luminescence, replicate 1: 1.03e5
- ATP luminescence, replicate 2: 99775

Glg1 #2
- averaged z-score: 0.256
- ATP luminescence, replicate 1: 78125
- ATP luminescence, replicate 2: 81531

Glg1 #3
- averaged z-score: 0.106
- ATP luminescence, replicate 1: 86994
- ATP luminescence, replicate 2: 72380

Vps15 #1
- averaged z-score: -0.209
- ATP luminescence, replicate 1: 91694
- ATP luminescence, replicate 2: 73632

Vps15 #2
- averaged z-score: -0.32
- ATP luminescence, replicate 1: 63976
- ATP luminescence, replicate 2: 62124

Vps15 #3
- averaged z-score: -0.266
- ATP luminescence, replicate 1: 72297
- ATP luminescence, replicate 2: 70047

emb #1
- averaged z-score: -0.208
- ATP luminescence, replicate 1: 92723
- ATP luminescence, replicate 2: 72002

emb #2
- averaged z-score: -0.0533
- ATP luminescence, replicate 1: 81687
- ATP luminescence, replicate 2: 55745

emb #3
- averaged z-score: -0.0468
- ATP luminescence, replicate 1: 72141
- ATP luminescence, replicate 2: 83108

INPP5E #1
- averaged z-score: 0.212
- ATP luminescence, replicate 1: 1.08e5
- ATP luminescence, replicate 2: 77800

INPP5E #2
- averaged z-score: -0.173
- ATP luminescence, replicate 1: 79429
- ATP luminescence, replicate 2: 79926

INPP5E #3
- averaged z-score: -0.558
- ATP luminescence, replicate 1: 60430
- ATP luminescence, replicate 2: 67200

esn #1
- averaged z-score: 0.327
- ATP luminescence, replicate 1: 96498
- ATP luminescence, replicate 2: 87474

esn #2
- averaged z-score: -0.246
- ATP luminescence, replicate 1: 76004
- ATP luminescence, replicate 2: 64919

esn #3
- averaged z-score: -0.417
- ATP luminescence, replicate 1: 64868
- ATP luminescence, replicate 2: 67577

Records above whose target name starts with E or e (6):
emb #1
- averaged z-score: -0.208
- ATP luminescence, replicate 1: 92723
- ATP luminescence, replicate 2: 72002

emb #2
- averaged z-score: -0.0533
- ATP luminescence, replicate 1: 81687
- ATP luminescence, replicate 2: 55745

emb #3
- averaged z-score: -0.0468
- ATP luminescence, replicate 1: 72141
- ATP luminescence, replicate 2: 83108

esn #1
- averaged z-score: 0.327
- ATP luminescence, replicate 1: 96498
- ATP luminescence, replicate 2: 87474

esn #2
- averaged z-score: -0.246
- ATP luminescence, replicate 1: 76004
- ATP luminescence, replicate 2: 64919

esn #3
- averaged z-score: -0.417
- ATP luminescence, replicate 1: 64868
- ATP luminescence, replicate 2: 67577

Next entries follow.
Nup44A #1
- averaged z-score: 0.0898
- ATP luminescence, replicate 1: 72019
- ATP luminescence, replicate 2: 80441

Nup44A #2
- averaged z-score: 0.36
- ATP luminescence, replicate 1: 99397
- ATP luminescence, replicate 2: 87371

Nup44A #3
- averaged z-score: 1.15
- ATP luminescence, replicate 1: 1.13e5
- ATP luminescence, replicate 2: 82551

CG31855 #1
- averaged z-score: -0.199
- ATP luminescence, replicate 1: 98042
- ATP luminescence, replicate 2: 65914

CG31855 #2
- averaged z-score: -0.21
- ATP luminescence, replicate 1: 80613
- ATP luminescence, replicate 2: 71829

CG31855 #3
- averaged z-score: -0.0573
- ATP luminescence, replicate 1: 66720
- ATP luminescence, replicate 2: 76668

Uba5 #1
- averaged z-score: -0.00994
- ATP luminescence, replicate 1: 83004
- ATP luminescence, replicate 2: 80818

Uba5 #2
- averaged z-score: -0.297
- ATP luminescence, replicate 1: 71639
- ATP luminescence, replicate 2: 79314

Uba5 #3
- averaged z-score: 0.0644
- ATP luminescence, replicate 1: 72345
- ATP luminescence, replicate 2: 75776
